The assay concerns the target Integrin β1 (ITGB1) (UniProt P05556). Nature of the assay: pull-down; GST pull-down of GMFG and ITGB1; bait, prey and conditions not told in the main text (Supplementary Methods).

Sequences of proteins named here, by UniProt entry; tags and fusion partners are left off.
UniProt P05556: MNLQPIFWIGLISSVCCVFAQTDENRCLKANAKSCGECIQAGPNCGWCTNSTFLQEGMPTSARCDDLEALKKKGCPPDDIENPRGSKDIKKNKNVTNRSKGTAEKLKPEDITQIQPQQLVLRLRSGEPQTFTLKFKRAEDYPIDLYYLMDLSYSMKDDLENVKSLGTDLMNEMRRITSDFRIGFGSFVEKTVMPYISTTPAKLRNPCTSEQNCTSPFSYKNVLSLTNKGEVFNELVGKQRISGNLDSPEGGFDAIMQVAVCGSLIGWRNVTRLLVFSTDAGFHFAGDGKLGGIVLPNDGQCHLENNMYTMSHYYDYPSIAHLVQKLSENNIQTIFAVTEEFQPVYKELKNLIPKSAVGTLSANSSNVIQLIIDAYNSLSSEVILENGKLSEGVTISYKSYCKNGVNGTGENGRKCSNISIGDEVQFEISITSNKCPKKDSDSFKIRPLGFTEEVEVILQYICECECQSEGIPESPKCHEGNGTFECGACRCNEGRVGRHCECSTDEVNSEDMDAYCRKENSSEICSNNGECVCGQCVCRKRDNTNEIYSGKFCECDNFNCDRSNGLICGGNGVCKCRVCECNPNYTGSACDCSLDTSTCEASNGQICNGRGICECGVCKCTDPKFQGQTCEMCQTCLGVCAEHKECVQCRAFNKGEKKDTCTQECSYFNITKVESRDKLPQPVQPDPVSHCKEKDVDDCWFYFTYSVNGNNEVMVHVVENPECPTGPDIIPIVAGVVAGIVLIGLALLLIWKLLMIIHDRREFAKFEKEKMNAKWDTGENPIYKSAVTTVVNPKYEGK

No constants are given. Whether binding was seen depends on the method and setting. In cells and extracts the contact can be indirect. Some entries that bind do so weakly or less than the wild type.

Turning to GMFG (from UniProt O60234 1-142), the binding result is “binds”.

Source of the values: paper PMC11515918.
